# Data as given in PubChem BioAssay AID1224830 (NIAID, 2016)
# Aim: 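Host factors that control LPS-induced TNF expression in human macrophages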 (primary screen)
# System: human THP-1 monocytic leukaemia cells, TNF dual-luciferase reporter clone, PMA-differentiated to macrophage-like cells
# Reagent: siRNA pool against human genes, 50 nM
# Time to read-out: LPS for 4 h, given about 3 days after siRNA transfection
# Challenge: bacterial LPS (TLR4 ligand), 10 ng/ml
# Read-out: 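Ratio of firefly to renilla light, scaled to the plate median and expressed as a robust z-score per replicate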
# Reading the numbers: TNF reporter robust z-score: higher = stronger TNF reporter response to LPS
# Hit rule: 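a well is active when its z-score exceeds 2.8 or falls below -1.5; control wells carry no call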
# Shown is one part, drawn at random, of about 18,000 deposited reagents. About 2,900 of all reagents (16%) count as active. 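Calls are made per well; low scores hint the gene aids the LPS response, high scores that it dampens it.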 Repeated entries: four replicate wells of each siRNA pool.
Gene,TNF reporter robust z-score,activity call
NAPSA,1.18,inactive
NAPSA,1.35,inactive
NAPSA,3.54,active
NAPSA,2.08,inactive
CHORDC1,0.51,inactive
CHORDC1,0.77,inactive
CHORDC1,-0.68,inactive
CHORDC1,-1.05,inactive
MUC17,-0.02,inactive
MUC17,0,inactive
MUC17,-0.15,inactive
MUC17,-0.56,inactive
LCE2A,-0.74,inactive
LCE2A,-1.33,inactive
LCE2A,-1.1,inactive
LCE2A,-1.44,inactive
PUS1,1.71,inactive
PUS1,1.12,inactive
PUS1,2.53,inactive
PUS1,0.76,inactive
IVL,0.03,inactive
IVL,-0.15,inactive
IVL,0.34,inactive
IVL,0.68,inactive
GTPBP3,-0.76,inactive
GTPBP3,-0.14,inactive
GTPBP3,-0.45,inactive
COQ4,1.96,inactive
COQ4,0.91,inactive
COQ4,-0.04,inactive
COQ4,0.44,inactive
SRSF5,-0.38,inactive
SRSF5,-0.78,inactive
SRSF5,-0.92,inactive
SRSF5,-0.91,inactive
TMEM69,-1.29,inactive
TMEM69,-0.29,inactive
TMEM69,-0.85,inactive
TMEM69,0.06,inactive
FAM161A,-0.2,inactive
FAM161A,0.67,inactive
FAM161A,0,inactive
FAM161A,0.12,inactive
LOC652759 (retired record),-1.22,inactive
LOC652759 (retired record),0.08,inactive
LOC652759 (retired record),0.87,inactive
LOC652759 (retired record),2.72,inactive

7 entries from above, reformatted.
{"Gene":"NAPSA","TNF reporter robust z-score":1.18,"activity call":"inactive"}
{"Gene":"NAPSA","TNF reporter robust z-score":1.35,"activity call":"inactive"}
{"Gene":"NAPSA","TNF reporter robust z-score":3.54,"activity call":"active"}
{"Gene":"NAPSA","TNF reporter robust z-score":2.08,"activity call":"inactive"}
{"Gene":"CHORDC1","TNF reporter robust z-score":0.51,"activity call":"inactive"}
{"Gene":"CHORDC1","TNF reporter robust z-score":0.77,"activity call":"inactive"}
{"Gene":"CHORDC1","TNF reporter robust z-score":-0.68,"activity call":"inactive"}
